The list shows a part of the results.
Columns and labels:
Assay in all cases: log2 fold change, soluble protein after heating vs DMSO (PISA); higher = thermal stabilisation; K562 lysate, 10 uM; active = over 0.2 and 3.5 SD of the protein, either way, in both replicates (recomputed)
[1] = compound: C#Cc1cccc(Nc2ncnc3cc(OCCOC)c(OCCOC)cc23)c1 [erlotinib]
In short: (§1)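 Thermal stability, expressed as log-two fold change relative to solvent controls, is given from duplicates. Crude K562 extract in PBS pH 7.4 with 1 mM MgCl2, at 1 mg/mL protein, was treated with 10 μM compound for 30 min and heated in aliquots for 3 min across 48°C-58°C. After pooling, adjustment to 0.5% NP-40 at 4°C and centrifugation at 21,000xg for 90 min, supernatant protein was measured by TMTpro 16plex LC-MS/MS with channel sums equalised.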

Sequences of proteins named here, by UniProt entry; tags and fusion partners are left off. A change or cut given only in a name is not applied to a line headed by its entry.
UniProt Q6ICL3: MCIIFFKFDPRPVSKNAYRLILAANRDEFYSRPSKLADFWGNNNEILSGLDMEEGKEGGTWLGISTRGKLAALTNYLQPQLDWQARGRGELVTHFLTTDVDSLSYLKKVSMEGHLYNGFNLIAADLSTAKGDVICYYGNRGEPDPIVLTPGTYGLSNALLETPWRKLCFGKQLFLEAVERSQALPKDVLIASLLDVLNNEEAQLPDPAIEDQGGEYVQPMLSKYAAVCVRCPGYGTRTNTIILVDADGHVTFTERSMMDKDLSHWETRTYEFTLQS
UniProt Q96BZ9: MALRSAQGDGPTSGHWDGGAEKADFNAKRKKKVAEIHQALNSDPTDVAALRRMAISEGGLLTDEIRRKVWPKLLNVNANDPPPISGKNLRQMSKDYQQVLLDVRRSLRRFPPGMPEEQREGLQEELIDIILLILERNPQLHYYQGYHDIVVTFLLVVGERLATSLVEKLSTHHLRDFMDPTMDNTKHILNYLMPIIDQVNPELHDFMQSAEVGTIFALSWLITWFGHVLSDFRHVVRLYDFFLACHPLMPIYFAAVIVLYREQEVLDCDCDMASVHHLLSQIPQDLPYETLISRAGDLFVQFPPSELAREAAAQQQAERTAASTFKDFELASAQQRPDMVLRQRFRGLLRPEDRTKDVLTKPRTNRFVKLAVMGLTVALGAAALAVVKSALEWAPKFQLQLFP
UniProt Q16594, whole entry, looked up: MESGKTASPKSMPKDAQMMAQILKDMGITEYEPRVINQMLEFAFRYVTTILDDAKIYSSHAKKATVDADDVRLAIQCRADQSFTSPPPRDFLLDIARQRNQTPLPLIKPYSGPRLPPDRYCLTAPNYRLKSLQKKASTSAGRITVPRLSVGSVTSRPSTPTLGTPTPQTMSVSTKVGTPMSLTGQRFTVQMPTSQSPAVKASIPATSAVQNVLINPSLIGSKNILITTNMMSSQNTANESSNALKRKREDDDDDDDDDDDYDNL
UniProt Q99081: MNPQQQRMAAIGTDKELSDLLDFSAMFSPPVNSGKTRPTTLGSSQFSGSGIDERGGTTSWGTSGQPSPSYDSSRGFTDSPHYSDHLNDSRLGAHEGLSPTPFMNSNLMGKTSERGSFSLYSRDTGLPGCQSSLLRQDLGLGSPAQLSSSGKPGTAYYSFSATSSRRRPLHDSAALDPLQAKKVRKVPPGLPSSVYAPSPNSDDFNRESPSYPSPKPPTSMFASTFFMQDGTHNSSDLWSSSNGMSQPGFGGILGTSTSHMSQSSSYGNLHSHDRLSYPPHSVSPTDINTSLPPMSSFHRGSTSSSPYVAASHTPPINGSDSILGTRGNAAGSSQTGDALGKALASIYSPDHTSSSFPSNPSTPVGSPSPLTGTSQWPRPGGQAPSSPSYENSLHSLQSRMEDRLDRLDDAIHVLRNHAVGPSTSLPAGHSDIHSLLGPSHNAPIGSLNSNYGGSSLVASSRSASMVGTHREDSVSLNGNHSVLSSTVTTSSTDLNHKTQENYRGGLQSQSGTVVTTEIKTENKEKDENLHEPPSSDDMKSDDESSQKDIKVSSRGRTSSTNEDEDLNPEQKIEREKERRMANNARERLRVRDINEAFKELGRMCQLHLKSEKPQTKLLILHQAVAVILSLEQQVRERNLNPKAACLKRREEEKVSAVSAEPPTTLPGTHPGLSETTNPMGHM
UniProt Q15545, whole entry, looked up: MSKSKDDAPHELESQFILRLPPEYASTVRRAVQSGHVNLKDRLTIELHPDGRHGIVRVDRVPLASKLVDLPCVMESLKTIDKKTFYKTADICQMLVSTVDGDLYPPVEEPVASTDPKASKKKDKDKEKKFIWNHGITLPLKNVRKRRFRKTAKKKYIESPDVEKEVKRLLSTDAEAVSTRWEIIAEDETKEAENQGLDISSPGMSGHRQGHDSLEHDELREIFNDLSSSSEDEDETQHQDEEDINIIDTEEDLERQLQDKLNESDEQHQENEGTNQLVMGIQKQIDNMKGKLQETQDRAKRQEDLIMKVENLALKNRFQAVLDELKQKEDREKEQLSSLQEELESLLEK
UniProt Q9NZ01: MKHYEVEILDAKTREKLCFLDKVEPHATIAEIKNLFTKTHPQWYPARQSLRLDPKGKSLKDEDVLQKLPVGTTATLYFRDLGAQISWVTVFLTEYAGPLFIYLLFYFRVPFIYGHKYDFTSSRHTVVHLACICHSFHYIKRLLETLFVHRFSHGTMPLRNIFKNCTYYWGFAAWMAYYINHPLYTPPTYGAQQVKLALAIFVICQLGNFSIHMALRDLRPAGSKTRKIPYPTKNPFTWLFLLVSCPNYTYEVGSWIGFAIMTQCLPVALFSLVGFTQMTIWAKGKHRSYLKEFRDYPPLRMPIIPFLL
UniProt Q9UHD2: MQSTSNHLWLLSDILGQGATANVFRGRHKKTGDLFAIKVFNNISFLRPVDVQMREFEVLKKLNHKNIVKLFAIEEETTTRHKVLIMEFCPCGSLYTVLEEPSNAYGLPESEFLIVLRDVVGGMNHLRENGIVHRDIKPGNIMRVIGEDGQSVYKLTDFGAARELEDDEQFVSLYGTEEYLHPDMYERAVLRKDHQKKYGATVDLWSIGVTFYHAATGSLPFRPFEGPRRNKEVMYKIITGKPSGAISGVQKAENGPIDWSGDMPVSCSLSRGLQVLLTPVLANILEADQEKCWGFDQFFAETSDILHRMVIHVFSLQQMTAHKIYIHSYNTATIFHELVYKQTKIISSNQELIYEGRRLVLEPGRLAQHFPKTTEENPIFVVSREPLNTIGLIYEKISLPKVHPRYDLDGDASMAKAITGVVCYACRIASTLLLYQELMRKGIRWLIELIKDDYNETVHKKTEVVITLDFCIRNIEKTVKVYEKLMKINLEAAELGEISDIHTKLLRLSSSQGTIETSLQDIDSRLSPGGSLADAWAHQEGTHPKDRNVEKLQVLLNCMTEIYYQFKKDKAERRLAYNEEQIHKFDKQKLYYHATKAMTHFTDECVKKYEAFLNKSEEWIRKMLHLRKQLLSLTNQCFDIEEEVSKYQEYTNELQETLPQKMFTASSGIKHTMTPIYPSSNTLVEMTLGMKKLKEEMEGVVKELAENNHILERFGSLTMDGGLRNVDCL
UniProt Q7Z7C8, whole entry, looked up: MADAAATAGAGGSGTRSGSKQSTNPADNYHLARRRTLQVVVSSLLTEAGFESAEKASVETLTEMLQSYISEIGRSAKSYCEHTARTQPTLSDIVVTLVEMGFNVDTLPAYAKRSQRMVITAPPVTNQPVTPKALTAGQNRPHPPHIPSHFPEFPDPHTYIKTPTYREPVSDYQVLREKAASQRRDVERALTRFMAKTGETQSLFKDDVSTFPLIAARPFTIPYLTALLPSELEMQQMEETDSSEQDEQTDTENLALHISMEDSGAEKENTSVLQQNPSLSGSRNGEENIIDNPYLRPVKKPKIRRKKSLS
UniProt Q8NFU7: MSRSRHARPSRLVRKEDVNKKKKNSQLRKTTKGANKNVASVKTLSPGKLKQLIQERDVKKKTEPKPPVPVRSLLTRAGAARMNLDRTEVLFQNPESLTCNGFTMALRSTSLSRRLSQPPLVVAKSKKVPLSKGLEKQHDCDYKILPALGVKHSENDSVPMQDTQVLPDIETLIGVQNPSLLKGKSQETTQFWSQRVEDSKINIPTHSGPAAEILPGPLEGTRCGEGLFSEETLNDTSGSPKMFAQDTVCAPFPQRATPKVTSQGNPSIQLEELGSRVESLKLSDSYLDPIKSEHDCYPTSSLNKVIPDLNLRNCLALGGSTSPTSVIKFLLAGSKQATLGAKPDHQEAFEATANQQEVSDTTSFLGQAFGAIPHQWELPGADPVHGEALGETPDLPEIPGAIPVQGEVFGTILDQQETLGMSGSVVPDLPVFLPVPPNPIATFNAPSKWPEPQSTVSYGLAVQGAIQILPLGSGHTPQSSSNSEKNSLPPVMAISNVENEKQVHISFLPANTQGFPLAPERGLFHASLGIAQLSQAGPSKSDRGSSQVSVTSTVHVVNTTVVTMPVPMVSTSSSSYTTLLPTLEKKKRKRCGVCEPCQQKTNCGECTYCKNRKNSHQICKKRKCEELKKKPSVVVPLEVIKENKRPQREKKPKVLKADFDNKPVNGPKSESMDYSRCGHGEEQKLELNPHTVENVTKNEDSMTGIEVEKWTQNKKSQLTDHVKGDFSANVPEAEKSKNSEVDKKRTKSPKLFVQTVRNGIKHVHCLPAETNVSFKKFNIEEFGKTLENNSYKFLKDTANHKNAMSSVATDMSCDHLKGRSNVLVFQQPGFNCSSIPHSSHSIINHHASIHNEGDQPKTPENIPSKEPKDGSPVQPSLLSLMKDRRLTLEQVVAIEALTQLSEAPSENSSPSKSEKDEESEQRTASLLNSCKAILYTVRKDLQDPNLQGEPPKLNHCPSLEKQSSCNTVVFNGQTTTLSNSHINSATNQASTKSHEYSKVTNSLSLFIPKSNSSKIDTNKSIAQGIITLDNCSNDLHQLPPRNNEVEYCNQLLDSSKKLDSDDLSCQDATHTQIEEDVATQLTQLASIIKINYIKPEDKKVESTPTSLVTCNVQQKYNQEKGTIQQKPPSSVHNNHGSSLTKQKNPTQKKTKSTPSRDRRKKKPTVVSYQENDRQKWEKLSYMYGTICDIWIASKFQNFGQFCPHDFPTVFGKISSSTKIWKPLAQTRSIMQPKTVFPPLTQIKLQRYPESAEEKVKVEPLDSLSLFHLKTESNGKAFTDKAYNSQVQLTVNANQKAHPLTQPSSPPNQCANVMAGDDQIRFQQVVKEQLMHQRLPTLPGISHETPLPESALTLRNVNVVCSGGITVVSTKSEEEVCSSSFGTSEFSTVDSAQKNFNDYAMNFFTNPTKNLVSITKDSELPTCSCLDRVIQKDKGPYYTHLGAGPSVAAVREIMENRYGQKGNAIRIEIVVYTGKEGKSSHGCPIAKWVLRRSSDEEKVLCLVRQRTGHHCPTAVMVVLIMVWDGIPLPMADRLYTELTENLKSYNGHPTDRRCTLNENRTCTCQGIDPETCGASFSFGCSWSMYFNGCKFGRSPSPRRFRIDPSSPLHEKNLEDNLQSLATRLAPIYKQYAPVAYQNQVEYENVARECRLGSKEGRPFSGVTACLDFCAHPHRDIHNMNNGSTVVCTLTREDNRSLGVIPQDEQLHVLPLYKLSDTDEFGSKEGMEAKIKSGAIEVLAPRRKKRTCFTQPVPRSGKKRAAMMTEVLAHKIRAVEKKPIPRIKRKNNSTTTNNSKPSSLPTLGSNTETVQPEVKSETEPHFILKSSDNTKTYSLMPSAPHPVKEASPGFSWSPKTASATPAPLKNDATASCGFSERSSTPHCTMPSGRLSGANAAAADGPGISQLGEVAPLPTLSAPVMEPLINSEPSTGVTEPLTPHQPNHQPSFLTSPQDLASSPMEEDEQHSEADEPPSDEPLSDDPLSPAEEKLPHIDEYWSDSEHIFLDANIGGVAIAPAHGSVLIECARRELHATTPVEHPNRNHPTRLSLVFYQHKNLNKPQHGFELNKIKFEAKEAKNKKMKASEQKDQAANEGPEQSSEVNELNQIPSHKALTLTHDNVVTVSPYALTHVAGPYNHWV
UniProt Q15814: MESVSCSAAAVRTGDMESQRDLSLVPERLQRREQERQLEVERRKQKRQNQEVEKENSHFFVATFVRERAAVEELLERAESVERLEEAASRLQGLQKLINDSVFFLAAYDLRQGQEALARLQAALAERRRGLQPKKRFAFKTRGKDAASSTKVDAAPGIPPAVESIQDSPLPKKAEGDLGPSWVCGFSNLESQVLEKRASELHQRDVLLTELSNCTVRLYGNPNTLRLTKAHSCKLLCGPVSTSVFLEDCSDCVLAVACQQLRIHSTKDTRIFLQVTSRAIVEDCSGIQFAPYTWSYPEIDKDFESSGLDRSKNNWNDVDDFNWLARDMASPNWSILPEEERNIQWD
UniProt Q9UGI8: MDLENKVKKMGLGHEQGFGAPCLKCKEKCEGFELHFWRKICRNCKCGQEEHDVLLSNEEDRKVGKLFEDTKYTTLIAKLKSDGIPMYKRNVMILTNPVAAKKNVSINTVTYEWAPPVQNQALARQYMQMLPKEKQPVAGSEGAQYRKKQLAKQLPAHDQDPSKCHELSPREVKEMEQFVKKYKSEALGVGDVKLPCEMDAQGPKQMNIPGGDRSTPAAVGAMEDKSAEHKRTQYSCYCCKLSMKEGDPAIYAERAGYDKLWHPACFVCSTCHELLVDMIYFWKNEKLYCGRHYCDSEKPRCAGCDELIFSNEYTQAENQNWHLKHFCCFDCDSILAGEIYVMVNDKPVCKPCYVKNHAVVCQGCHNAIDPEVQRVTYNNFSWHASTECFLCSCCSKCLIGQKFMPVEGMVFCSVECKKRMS
UniProt Q5JUR7: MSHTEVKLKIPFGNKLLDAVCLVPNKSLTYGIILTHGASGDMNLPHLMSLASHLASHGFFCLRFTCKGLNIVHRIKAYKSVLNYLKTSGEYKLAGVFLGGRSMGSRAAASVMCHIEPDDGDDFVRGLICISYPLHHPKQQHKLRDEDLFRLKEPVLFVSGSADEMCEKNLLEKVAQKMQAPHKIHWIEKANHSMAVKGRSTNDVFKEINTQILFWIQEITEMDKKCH

[2] = compound: C/C(=N\NC(=O)C1=CC(=CC=C1)S(=O)(=O)N2CCOCC2)/C3=C(C=CC(=C3)Cl)O
In short: as §1

[3] = compound: C1=CC(=CC=C1C2=NC3=C(N2)C=C(C=C3)C(=O)N)OC4=CC=C(C=C4)Cl
In short: as §1

[4] = compound: C1=CC2=C(C=CC(=C2)/C=C\3/C(=O)NC(=NCC4=CC=CS4)S3)N=C1
In short: as §1

[5] = compound: C1=CC2=NC=CN=C2C=C1/C=C/3\C(=O)NC(=O)S3
In short: as §1

[6] = compound: C1=CC=C(C=C1)C2=NC(=C(N2)C3=CC=NC=C3)C4=CC(=C(C=C4)Cl)O
In short: as §1

[7] = compound: C1=CC=C2C(=C1)C3=NNC4=CC=CC(=C43)C2=O
In short: as §1

[8] = compound: C1CCN(C1)C(=O)NC2=CC=CC(=C2)NC3=NC=C(C(=N3)NCCC4=CN=CN4)Br
In short: as §1

[9] = compound: C1CN(CCC1(CC2=CC=C(C=C2)Cl)N)C3=NC=NC4=C3C=CN4
In short: as §1

[10] = compound: C1COCCN1CCN2C3=CC=CC=C3N=C2NC(=O)C4=CC(=CC=C4)[N+](=O)[O-] [IRAK-1-4 Inhibitor I]
In short: as §1

Measured: log2 fold change

TANGO2 isoform 4 (UniProt Q6ICL3)
inactive: [1] 0.014 | [2] -0.067 | [3] 0.011 | [4] -0.044 | [5] 0.008 | [6] 0 | [7] 0.028 | [8] -0.001 | [9] 0 | [10] 0.031

TBL1XR1 (UniProt Q9BZK7)
inactive: [1] 0.011 | [2] -0.011 | [3] 0.007 | [4] 0.009 | [5] -0.052 | [6] 0.022 | [7] -0.016 | [8] -0.01 | [9] 0.031 | [10] 0.003

TBC1D20 isoform 3 (UniProt Q96BZ9)
inactive: [1] -0.073 | [2] 0.142 | [3] -0.113 | [4] 0.043 | [5] 0.117 | [6] -0.038 | [7] -0.018 | [8] 0.033 | [9] 0.023 | [10] 0.132

TFRC (UniProt P02786)
inactive: [1] 0 | [2] 0 | [3] 0.021 | [4] -0.009 | [5] 0.012 | [6] -0.009 | [7] 0.028 | [8] 0.015 | [9] -0.005 | [10] -0.002

TBPL1 (UniProt P62380)
inactive: [1] -0.048 | [2] -0.124 | [3] -0.036 | [4] -0.028 | [5] -0.015 | [6] 0.001 | [7] 0.057 | [8] 0.114 | [9] -0.004 | [10] -0.017

TBC1D15 isoform 3 (UniProt Q8TC07)
inactive: [1] 0.008 | [2] -0.07 | [3] -0.03 | [4] 0.011 | [5] 0.012 | [6] -0.001 | [7] -0.003 | [8] 0.004 | [9] -0.013 | [10] 0.008

TANGO6 (UniProt Q9C0B7)
inactive: [1] 0.045 | [2] -0.04 | [3] 0.012 | [4] -0.011 | [5] 0.009 | [6] -0.049 | [7] -0.048 | [8] 0.007 | [9] 0.023 | [10] 0.048

TAF9 (UniProt Q16594)
inactive: [1] 0.022 | [2] 0.009 | [3] 0.081 | [4] 0.056 | [5] 0.002 | [6] 0.013 | [7] -0.052 | [8] -0.08 | [9] 0.084 | [10] 0.032

TCF3 (UniProt P15923)
inactive: [1] 0.027 | [2] -0.028 | [3] 0.067 | [4] 0.004 | [5] 0.016 | [6] 0.011 | [7] 0.07 | [8] -0.005 | [9] 0.022 | [10] 0.04

TCF12 isoform 3 (UniProt Q99081)
inactive: [1] -0.001 | [2] -0.025 | [3] 0.081 | [4] 0.006 | [5] -0.004 | [6] -0.017 | [7] 0.003 | [8] -0.063 | [9] 0.006 | [10] 0.051

TAF7 (UniProt Q15545)
inactive: [1] -0.039 | [2] -0.01 | [3] -0.027 | [4] 0.01 | [5] -0.008 | [6] 0.001 | [7] 0.024 | [8] -0.022 | [9] -0.026 | [10] -0.005

TECR (UniProt Q9NZ01)
inactive: [1] 0.024 | [2] -0.029 | [3] -0.113 | [4] 0.019 | [5] 0.083 | [6] -0.013 | [7] -0.066 | [8] -0.008 | [9] 0.028 | [10] 0.038

TAOK3 (UniProt Q9H2K8)
inactive: [1] -0.035 | [2] -0.022 | [3] 0 | [4] 0.028 | [5] 0.067 | [6] 0.01 | [7] 0.051 | [8] 0.092 | [9] 0.022 | [10] 0.001

TBK1 (UniProt Q9UHD2)
inactive: [1] -0.005 | [2] -0.066 | [3] -0.03 | [4] 0.006 | [5] -0.067 | [6] 0.023 | [7] 0.238 | [8] 0.214 | [9] -0.047 | [10] 0.082

TAF8 isoform 2 (UniProt Q7Z7C8)
inactive: [1] 0 | [2] -0.033 | [3] 0.006 | [4] -0.009 | [5] -0.031 | [6] 0.028 | [7] 0.014 | [8] -0.124 | [9] 0.047 | [10] -0.016

TCEA1 (UniProt P23193)
inactive: [1] -0.023 | [2] 0.016 | [3] 0.032 | [4] -0.007 | [5] -0.018 | [6] 0.015 | [7] 0.043 | [8] 0.028 | [9] -0.017 | [10] -0.017

TATDN3 isoform 3 (UniProt Q17R31)
inactive: [1] -0.017 | [2] -0.027 | [3] -0.036 | [4] -0.045 | [5] 0.049 | [6] 0.018 | [7] -0.016 | [8] -0.079 | [9] 0.016 | [10] 0.034

TARDBP (UniProt Q13148)
inactive: [1] -0.017 | [2] -0.092 | [3] 0.018 | [4] 0.004 | [5] 0.09 | [6] -0.133 | [7] -0.036 | [8] -0.065 | [9] 0.032 | [10] 0.048

TET1 (UniProt Q8NFU7)
inactive: [1] 0.164 | [2] 0.062 | [3] 0.178 | [4] 0.027 | [5] -0.089 | [6] 0.115 | [7] -0.164 | [8] -0.064 | [9] 0.171 | [10] 0.209

TBCC (UniProt Q15814)
inactive: [1] -0.005 | [2] 0.048 | [3] 0.007 | [4] 0.023 | [5] -0.002 | [6] 0.011 | [7] 0.027 | [8] -0.002 | [9] 0.03 | [10] -0.006

2 neighbouring entries already listed:
TATDN3 isoform 3 (UniProt Q17R31)
inactive: [1] -0.017 | [2] -0.027 | [3] -0.036 | [4] -0.045 | [5] 0.049 | [6] 0.018 | [7] -0.016 | [8] -0.079 | [9] 0.016 | [10] 0.034

TARDBP (UniProt Q13148)
inactive: [1] -0.017 | [2] -0.092 | [3] 0.018 | [4] 0.004 | [5] 0.09 | [6] -0.133 | [7] -0.036 | [8] -0.065 | [9] 0.032 | [10] 0.048

(further entries)

TCERG1 (UniProt O14776)
inactive: [1] -0.03 | [2] -0.121 | [3] -0.001 | [4] -0.013 | [5] -0.006 | [6] -0.03 | [7] -0.016 | [8] -0.004 | [9] 0.023 | [10] -0.012

TALDO1 (UniProt P37837)
inactive: [1] -0.043 | [2] 0.04 | [3] -0.054 | [4] -0.004 | [5] -0.001 | [6] 0 | [7] 0.011 | [8] 0.003 | [9] -0.017 | [10] -0.024

TFE3 (UniProt P19532)
inactive: [1] 0.033 | [2] 0.026 | [3] -0.052 | [4] -0.009 | [5] -0.002 | [6] 0.005 | [7] 0.038 | [8] 0.022 | [9] 0.016 | [10] 0.008

TEPSIN, A0A1B0GV70
inactive: [1] 0.025 | [2] 0.206 | [3] -0.094 | [4] 0.122 | [5] -0.017 | [6] 0.117 | [7] 0.076 | [8] -0.099 | [9] 0.087 | [10] 0.029

TESC (UniProt Q96BS2)
inactive: [1] -0.043 | [2] 0.042 | [3] 0.03 | [4] 0.074 | [5] -0.042 | [6] -0.006 | [7] 0.036 | [8] 0.003 | [9] 0.04 | [10] -0.003

TES (UniProt Q9UGI8)
inactive: [1] 0.001 | [2] -0.011 | [3] 0.033 | [4] -0.032 | [5] -0.022 | [6] 0.007 | [7] 0 | [8] -0.006 | [9] 0.03 | [10] -0.002

TEX30 (UniProt Q5JUR7)
inactive: [1] -0.012 | [2] -0.106 | [3] -0.112 | [4] 0.03 | [5] 0.046 | [6] -0.009 | [7] -0.065 | [8] -0.034 | [9] -0.007 | [10] -0.031

Source: the supplement of paper PMC10849652
